Repeats are few or missing, and single values can be far off.
Compound: [O-][N+](C(C1=C(C(O)=C2)NC(C(C=C3)=CC=C3Cl)C4C1C=CC4)=C2Cl)=O
Experiment: melting temperature shift (compound 7 minus DMSO); higher = compound stabilises the protein
Conditions: 10 µM
Experimental: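 Thermal proteome profiling (TMT mass spectrometry) in intact DAOY medulloblastoma cells or DAOY lysates treated with 10 µM compound 7 or DMSO, heated at 10 temperatures from 40.5 to 73.8 °C for 3 min. Melting curves were fitted with the Bioconductor TPP package, and the melting point difference between compound and vehicle is reported per protein (single curve per condition).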

Sequences of proteins named here, by UniProt entry; tags and fusion partners are left off. A change or cut given only in a name is not applied to a line headed by its entry.
UniProt O75884: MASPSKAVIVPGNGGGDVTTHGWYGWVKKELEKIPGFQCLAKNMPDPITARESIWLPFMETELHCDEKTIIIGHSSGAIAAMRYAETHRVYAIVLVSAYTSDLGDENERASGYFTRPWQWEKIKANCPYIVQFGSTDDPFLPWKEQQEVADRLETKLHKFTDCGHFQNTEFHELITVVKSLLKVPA
UniProt P05423: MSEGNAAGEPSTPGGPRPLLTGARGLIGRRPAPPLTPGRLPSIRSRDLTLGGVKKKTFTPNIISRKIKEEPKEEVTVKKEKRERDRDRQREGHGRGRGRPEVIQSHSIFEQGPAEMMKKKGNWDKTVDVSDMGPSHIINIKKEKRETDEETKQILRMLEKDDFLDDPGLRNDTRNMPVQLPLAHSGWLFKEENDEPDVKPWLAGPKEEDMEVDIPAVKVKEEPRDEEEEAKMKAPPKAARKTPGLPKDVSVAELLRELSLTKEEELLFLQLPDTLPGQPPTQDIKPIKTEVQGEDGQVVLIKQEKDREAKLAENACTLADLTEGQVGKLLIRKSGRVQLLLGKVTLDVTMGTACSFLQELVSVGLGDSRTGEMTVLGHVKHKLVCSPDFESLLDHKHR
UniProt Q92785, whole entry: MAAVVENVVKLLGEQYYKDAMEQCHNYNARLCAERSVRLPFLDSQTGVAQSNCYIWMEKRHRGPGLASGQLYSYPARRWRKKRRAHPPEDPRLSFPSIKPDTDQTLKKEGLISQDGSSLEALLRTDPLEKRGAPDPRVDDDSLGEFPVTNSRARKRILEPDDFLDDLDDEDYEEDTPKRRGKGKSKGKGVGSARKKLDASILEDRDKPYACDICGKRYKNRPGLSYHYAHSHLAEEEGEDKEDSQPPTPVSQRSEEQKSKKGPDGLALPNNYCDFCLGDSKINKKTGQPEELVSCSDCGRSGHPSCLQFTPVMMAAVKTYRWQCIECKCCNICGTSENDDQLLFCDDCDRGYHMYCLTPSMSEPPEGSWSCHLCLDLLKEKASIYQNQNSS
UniProt P51571: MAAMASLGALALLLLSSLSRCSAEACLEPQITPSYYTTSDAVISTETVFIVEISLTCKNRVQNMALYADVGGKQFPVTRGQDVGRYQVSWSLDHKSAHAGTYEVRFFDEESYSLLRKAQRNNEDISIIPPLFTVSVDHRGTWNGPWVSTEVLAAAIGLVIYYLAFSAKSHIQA
UniProt P61326, whole entry: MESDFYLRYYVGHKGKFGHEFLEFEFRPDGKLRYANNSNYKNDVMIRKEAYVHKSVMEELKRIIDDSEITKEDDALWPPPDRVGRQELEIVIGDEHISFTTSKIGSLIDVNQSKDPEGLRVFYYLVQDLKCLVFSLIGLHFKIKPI
UniProt P48059, whole entry: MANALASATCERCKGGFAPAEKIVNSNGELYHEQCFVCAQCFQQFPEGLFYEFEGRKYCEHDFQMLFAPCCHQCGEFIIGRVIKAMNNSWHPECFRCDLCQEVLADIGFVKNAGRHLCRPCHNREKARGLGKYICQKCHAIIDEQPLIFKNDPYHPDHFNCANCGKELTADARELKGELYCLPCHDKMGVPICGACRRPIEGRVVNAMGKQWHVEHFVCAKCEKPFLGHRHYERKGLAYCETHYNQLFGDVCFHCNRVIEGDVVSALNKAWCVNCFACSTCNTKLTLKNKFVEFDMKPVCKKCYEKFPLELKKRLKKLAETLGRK
UniProt P48426: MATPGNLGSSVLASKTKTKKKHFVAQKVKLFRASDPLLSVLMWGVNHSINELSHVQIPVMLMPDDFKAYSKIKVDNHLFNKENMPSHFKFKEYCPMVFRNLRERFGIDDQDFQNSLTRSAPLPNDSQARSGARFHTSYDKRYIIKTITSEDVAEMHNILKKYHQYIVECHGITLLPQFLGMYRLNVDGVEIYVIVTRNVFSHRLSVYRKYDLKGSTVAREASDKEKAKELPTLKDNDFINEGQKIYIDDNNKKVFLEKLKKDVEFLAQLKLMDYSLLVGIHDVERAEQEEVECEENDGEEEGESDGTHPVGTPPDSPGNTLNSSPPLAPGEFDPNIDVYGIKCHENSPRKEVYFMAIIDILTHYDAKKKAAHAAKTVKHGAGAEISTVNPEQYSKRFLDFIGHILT
UniProt Q5RI15: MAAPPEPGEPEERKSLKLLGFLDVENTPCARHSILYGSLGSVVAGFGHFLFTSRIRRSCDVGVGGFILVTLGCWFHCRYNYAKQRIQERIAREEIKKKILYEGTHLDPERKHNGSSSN
UniProt Q99816: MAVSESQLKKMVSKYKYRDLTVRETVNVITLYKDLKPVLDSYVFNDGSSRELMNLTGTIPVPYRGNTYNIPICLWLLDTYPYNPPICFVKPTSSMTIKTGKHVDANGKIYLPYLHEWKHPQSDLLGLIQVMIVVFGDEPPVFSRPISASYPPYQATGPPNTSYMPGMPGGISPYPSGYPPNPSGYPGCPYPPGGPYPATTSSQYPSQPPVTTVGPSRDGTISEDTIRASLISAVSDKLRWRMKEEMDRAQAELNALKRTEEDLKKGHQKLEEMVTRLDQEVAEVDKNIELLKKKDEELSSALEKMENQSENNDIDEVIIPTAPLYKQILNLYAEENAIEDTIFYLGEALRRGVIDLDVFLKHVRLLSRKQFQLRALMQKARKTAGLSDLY
UniProt Q9UGI9: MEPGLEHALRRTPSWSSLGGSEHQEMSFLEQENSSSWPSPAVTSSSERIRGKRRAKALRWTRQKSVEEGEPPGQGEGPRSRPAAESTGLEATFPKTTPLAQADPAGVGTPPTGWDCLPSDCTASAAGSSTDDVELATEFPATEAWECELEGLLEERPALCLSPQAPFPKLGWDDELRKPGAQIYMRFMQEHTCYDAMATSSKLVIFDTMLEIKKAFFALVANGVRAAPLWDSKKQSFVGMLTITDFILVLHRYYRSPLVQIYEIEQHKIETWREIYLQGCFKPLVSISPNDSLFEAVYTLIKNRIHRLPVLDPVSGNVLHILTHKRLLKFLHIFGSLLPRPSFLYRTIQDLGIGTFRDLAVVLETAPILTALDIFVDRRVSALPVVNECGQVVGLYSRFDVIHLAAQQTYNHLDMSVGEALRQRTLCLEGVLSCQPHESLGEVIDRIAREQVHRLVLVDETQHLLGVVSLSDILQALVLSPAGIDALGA
UniProt Q9P0K7: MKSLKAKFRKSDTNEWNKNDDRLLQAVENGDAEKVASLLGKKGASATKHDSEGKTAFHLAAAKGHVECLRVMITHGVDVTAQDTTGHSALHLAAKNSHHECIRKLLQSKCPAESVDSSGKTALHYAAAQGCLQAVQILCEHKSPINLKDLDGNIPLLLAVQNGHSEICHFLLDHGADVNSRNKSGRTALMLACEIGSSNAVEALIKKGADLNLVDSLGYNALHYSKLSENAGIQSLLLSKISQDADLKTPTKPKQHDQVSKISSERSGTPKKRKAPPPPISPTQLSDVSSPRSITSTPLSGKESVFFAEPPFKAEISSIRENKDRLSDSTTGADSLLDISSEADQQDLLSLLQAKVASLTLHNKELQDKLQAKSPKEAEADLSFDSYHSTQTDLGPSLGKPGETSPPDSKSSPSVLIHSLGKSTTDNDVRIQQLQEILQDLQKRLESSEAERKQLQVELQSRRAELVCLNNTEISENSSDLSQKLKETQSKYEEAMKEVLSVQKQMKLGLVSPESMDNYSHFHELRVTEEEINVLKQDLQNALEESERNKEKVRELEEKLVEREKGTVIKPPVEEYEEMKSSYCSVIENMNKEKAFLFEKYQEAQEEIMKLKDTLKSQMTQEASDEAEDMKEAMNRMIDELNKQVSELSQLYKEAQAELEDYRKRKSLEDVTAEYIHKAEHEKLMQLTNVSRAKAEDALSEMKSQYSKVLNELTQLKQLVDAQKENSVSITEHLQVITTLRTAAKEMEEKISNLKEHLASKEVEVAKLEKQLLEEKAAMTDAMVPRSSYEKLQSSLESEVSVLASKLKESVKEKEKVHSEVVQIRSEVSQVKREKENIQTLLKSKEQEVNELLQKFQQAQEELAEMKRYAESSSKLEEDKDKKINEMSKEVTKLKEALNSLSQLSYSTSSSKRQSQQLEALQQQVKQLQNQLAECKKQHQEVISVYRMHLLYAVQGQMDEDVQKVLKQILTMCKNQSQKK
UniProt Q8N0X7: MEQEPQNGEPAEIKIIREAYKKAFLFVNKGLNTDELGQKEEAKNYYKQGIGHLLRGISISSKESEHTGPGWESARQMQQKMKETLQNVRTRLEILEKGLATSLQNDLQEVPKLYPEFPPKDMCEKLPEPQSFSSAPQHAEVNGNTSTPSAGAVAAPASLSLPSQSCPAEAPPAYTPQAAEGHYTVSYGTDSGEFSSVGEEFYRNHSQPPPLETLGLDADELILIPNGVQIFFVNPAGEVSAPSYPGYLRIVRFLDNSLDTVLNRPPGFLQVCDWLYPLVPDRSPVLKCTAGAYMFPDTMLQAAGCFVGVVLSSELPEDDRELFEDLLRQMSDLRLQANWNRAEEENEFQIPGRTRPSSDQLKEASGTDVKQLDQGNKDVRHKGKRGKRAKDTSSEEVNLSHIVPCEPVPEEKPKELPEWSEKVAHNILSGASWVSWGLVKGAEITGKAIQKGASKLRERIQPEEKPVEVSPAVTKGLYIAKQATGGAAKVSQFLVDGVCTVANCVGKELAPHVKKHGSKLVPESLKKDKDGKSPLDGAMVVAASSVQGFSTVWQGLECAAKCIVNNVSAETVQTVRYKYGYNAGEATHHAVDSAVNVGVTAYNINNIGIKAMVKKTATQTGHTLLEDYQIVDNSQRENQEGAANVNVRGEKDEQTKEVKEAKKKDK
UniProt Q96K76: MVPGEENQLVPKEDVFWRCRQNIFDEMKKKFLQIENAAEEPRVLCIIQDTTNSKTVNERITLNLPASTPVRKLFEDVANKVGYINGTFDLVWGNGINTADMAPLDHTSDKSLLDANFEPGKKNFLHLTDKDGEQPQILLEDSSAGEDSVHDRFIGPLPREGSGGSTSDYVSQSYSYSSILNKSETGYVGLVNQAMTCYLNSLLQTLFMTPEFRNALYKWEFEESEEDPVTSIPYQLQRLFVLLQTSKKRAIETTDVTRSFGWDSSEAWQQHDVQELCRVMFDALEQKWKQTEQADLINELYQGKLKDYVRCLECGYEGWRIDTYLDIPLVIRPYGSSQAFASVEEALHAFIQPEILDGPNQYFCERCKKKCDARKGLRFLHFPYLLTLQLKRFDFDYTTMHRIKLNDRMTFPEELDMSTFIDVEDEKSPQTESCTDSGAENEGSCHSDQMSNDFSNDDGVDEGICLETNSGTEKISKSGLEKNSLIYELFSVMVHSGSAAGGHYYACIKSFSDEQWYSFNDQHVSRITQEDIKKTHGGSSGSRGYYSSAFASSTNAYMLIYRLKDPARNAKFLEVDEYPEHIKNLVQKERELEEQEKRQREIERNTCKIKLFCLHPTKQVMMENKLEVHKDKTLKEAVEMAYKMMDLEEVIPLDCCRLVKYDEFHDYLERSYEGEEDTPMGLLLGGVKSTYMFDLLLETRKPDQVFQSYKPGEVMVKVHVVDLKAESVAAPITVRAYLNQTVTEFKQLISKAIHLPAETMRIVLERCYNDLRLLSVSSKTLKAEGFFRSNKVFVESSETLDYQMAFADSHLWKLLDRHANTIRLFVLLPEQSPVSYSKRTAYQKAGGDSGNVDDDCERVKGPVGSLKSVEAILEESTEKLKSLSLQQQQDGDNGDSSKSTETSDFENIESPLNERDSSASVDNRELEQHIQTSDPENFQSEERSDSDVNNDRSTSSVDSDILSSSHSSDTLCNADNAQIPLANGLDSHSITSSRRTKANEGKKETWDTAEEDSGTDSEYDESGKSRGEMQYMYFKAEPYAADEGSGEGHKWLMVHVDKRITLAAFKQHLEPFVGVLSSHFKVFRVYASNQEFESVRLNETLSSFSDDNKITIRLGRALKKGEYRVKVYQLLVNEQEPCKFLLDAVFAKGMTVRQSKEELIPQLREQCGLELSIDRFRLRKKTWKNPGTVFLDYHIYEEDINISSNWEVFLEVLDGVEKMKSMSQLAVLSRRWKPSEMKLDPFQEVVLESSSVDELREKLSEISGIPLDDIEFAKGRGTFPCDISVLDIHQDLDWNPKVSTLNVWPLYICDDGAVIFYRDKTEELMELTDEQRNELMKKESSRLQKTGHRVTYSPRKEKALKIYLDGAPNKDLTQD
UniProt P28838: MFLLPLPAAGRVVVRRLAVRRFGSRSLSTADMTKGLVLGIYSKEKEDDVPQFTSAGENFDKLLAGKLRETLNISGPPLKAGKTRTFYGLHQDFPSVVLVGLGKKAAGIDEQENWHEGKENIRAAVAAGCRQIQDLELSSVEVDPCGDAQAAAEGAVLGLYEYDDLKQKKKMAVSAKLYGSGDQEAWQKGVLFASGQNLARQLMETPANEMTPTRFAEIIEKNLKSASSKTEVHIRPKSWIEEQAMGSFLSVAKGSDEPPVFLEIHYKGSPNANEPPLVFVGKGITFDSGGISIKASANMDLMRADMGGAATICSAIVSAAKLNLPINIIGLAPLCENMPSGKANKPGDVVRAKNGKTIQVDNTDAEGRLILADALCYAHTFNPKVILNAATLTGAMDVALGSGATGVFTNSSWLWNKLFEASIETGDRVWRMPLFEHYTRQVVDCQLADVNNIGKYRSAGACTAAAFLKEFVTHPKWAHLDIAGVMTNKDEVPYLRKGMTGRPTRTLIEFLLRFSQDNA

[1] = system: DAOY cell lysate, treatment time: 20 min, 4 °C
[2] = system: intact DAOY cells, treatment time: 90 min, 37 °C

Row | Target | melting temperature shift [1] [°C] | melting temperature shift [2] [°C]
1 | UniProt Q14686 | 1.3 | 
2 | SART1 (UniProt O43290) | -0.242 | 0.0597
3 | DCTN6 (UniProt O00399) |  | 0.23
4 | PLPP2 (UniProt O43688) |  | 4.01
5 | UniProt Q9NQ39 |  | -0.301
6 | SAMD4B (UniProt Q5PRF9) | -0.13 | -1.47
7 | OARD1 (UniProt Q9Y530) | -0.123 | 0.706
8 | UniProt Q6PEW1 |  | -0.508
9 | UniProt Q9BSK2 | 3.99 | 
10 | RBBP9 (UniProt O75884) | -0.557 | 
11 | POLR3D (UniProt P05423) | -1.49 | 
12 | VCP (UniProt P55072) | 0.53 | -0.244
13 | P0DMN0 (UniProt P0DMM9) |  | 0.933
14 | PLD1 (UniProt Q13393) | 2.92 | 
15 | DIP2B (UniProt Q9P265) | -1.03 | 0.35
16 | ACTR6 (UniProt Q9GZN1) | 0.42 | -0.305
17 | SLC37A4 (UniProt O43826) | -0.637 | 
18 | DPF2 (UniProt Q92785) | -1.2 | 0.766
19 | SSR4 (UniProt P51571) | 1.12 | 0.55
20 | UniProt P61326 | -0.0916 | 1.32
21 | LIMS1 (UniProt P48059) | -1.26 | 0.0868
22 | PIP4K2A (UniProt P48426) | -0.644 | -0.856

Taken from above:
Under melting temperature shift [2] [°C], DPF2 (UniProt Q92785) has 0.766
Under melting temperature shift [2] [°C], SART1 (UniProt O43290) has 0.0597

More entries follow:

Row | Target | melting temperature shift [1] [°C] | melting temperature shift [2] [°C]
23 | NEGR1 (UniProt Q7Z3B1) | 4.75 | 2.28
24 | MON2 (UniProt Q7Z3U7) | -0.478 | -0.28
25 | MFN2 (UniProt O95140) | 1.24 | -0.0772
26 | COX20 (UniProt Q5RI15) | 4.89 | 
27 | UniProt O43909 |  | -1.07
28 | TUBB6 (UniProt Q9BUF5) | -0.979 | -1.47
29 | SEC61A1 (UniProt P61619) | 1.18 | -1.49
30 | PCYT2 (UniProt Q99447) | 0.08 | 0.562
31 | PTBP3 (UniProt O95758) | -1.12 | -0.117
32 | TSG101 (UniProt Q99816) | -0.267 | 0.0652
33 | SMS (UniProt P52788) | -1.03 | -0.144
34 | APPL1 (UniProt Q9UKG1) | -0.723 | 0.438
35 | UniProt Q9UGI9 |  | -1.56
36 | C20ORF27 (UniProt Q9GZN8) | -1.18 | -0.578
37 | RAI14 (UniProt Q9P0K7) | -0.697 | 0.577
38 | UniProt Q96QD9 | 1.34 | 
39 | STOML2 (UniProt Q9UJZ1) | 3.28 | -0.597
40 | SPG20 (UniProt Q8N0X7) | -0.0632 | -0.438
41 | USP47 (UniProt Q96K76) | -0.411 | 0.324
42 | LAP3 (UniProt P28838) | 0.0169 | -1.61
43 | MTMR2 (UniProt Q13614) | -0.534 | 

From the supplement of paper PMC10060354, “Discovery of a small molecule ligand of FRS2 that inhibits invasion and tumor growth” (Cellular Oncology, 2022)
